In PMC3900249 (Clinical pharmacology and therapeutics, 2012):

Columns and labels:
[1] = ultracentrifugation; ref Lalloz, et al., 32; cited from earlier work
[2] = Fraction unbound in HLM by ultracentrifugation; type: in vitro ADME; details: human, pooled human liver microsomes, pH 7.4
[3] = Fraction unbound in human plasma by ultracentrifugation; type: in vitro ADME

In the case of `CCCCc1oc2ccccc2c1C(=O)c1cc(I)c(OCCN(CC)CC)c(I)c1` [AMIO, Amiodarone], the fu in plasma [1] is given as 3.7 ± 0.6%, the fraction unbound at 2 h [2] is given as 0.014 ± 0.002 and the fraction unbound at 2 h [3] is given as 0.033 ± 0.008.
